For 2 molecules, binding results are on record in PMC8565312.

Chains of the proteins cited; added tags and fusions are not shown.
UniProt O95602: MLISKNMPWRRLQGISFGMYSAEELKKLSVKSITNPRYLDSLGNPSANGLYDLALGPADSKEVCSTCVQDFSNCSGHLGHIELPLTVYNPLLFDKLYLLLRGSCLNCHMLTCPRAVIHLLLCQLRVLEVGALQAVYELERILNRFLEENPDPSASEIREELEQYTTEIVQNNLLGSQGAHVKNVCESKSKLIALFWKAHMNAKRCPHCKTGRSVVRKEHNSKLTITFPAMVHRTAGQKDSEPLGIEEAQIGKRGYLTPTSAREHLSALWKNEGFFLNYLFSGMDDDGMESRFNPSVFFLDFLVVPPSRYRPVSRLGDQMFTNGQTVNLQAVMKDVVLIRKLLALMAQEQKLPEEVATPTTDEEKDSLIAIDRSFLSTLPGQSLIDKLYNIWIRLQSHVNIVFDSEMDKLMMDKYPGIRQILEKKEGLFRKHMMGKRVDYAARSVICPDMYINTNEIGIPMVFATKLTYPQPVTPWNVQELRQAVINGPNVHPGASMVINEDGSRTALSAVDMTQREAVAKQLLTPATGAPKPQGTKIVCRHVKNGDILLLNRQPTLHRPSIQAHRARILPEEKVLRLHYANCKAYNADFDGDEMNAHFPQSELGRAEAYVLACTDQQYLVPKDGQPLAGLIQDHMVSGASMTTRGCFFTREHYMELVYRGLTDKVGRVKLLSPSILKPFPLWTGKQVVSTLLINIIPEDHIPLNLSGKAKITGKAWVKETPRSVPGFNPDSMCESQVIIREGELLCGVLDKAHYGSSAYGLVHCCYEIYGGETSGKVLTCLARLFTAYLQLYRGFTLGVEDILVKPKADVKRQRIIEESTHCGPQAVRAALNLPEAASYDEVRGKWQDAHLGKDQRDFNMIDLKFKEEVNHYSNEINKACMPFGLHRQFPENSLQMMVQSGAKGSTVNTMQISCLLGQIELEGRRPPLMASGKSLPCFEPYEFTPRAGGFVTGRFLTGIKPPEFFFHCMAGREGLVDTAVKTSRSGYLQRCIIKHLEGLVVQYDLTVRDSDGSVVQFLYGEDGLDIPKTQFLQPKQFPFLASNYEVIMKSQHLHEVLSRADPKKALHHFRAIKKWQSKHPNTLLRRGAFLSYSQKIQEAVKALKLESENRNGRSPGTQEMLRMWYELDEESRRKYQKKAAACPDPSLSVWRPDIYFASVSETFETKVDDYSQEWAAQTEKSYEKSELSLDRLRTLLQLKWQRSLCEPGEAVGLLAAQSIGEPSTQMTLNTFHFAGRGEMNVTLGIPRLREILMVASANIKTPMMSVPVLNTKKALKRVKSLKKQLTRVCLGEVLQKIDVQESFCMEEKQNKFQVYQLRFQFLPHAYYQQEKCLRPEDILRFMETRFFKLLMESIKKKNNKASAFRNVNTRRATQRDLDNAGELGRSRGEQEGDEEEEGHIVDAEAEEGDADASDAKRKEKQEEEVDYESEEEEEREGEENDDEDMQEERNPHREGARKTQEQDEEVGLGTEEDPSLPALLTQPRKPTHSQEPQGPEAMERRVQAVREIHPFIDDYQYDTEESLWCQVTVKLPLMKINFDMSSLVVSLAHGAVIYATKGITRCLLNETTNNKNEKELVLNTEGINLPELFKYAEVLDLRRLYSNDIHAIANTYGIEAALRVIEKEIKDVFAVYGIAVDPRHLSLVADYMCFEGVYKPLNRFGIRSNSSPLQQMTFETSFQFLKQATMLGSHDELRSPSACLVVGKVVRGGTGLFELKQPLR
UniProt Q9H9Y6: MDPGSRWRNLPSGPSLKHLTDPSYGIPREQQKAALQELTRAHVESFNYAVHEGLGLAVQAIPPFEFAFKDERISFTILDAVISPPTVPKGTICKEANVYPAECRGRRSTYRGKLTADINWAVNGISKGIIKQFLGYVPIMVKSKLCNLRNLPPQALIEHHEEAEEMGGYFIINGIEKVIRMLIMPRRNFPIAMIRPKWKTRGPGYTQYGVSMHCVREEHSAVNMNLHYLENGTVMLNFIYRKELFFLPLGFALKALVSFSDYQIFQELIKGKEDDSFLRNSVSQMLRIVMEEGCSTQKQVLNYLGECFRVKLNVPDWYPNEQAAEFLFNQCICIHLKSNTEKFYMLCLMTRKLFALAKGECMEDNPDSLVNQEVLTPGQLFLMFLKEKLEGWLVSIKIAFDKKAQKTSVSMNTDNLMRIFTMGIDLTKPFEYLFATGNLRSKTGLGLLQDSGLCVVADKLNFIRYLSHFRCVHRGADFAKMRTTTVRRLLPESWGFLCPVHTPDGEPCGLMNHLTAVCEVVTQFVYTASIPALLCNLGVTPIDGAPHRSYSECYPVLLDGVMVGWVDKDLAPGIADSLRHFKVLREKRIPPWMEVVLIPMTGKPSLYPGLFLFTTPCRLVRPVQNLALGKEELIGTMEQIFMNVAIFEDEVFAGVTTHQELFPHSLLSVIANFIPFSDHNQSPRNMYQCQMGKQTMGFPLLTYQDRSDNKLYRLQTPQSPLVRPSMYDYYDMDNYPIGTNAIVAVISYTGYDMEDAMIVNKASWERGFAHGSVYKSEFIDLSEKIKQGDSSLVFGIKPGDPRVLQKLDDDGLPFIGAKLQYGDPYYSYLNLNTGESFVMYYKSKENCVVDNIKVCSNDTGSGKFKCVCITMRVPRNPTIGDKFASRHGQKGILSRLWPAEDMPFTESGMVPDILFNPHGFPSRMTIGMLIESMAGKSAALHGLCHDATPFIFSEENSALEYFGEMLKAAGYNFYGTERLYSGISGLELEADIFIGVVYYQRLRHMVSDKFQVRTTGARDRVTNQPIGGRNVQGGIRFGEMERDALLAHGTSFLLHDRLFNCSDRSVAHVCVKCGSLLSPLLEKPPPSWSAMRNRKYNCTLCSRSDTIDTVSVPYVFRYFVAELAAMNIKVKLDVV

These are yes or no findings as the source states them, for the method shown. In cells and extracts the contact can be indirect. Some results given as binding are weak or reduced against the parent protein; the word gives no strength.

Experiment [1] has as its target RPA194 (human (endogenous in human fibroblasts)) (UniProt O95602). Nature of the experiment: co-IP; co-immunoprecipitation of TFIIE subunits (TFIIEα, TFIIEβ) and RNA polymerase I subunits (RPA194, RPA135); cells, baits and buffers not described in the methods shown.
The target of experiment [2] is RPA135 (human (endogenous in human fibroblasts)) (UniProt Q9H9Y6). Described as above.

Take RPA135 (from UniProt Q9H9Y6 1-1135): the binding result in experiment [1] is given as “binds”.

B1: TFIIEβ (protein, UniProt P29084 1-291)
chain: MDPSLLRERELFKKRALSTPVVEKRSASSESSSSSSKKKKTKVEHGGSSGSKQNSDHSNGSFNLKALSGSSGYKFGVLAKIVNYMKTRHQRGDTHPLTLDEILDETQHLDIGLKQKQWLMTEALVNNPKIEVIDGKYAFKPKYNVRDKKALLRLLDQHDQRGLGGILLEDIEEALPNSQKAVKALGDQILFVNRPDKKKILFFNDKSCQFSVDEEFQKLWRSVTVDSMDEEKIEEYLKRQGISSMQESGPKKVAPIQRRKKPASQKKRRFKTHNEHLAGVLKDYSDITSSK
As for B1, the binding result in experiment [1] and in experiment [2] was “no binding” each time.
